# Source: the supplement of paper PMC3334620
# The full ranking holds about 33,000 sequences; the median of “E-score (-0.5 to 0.5)” is about -0.0014, and the highest 2% start at about 0.25. This is one part of the list.
# Target: T1, Cad1 (UniProt P24813)
# T1 sequence: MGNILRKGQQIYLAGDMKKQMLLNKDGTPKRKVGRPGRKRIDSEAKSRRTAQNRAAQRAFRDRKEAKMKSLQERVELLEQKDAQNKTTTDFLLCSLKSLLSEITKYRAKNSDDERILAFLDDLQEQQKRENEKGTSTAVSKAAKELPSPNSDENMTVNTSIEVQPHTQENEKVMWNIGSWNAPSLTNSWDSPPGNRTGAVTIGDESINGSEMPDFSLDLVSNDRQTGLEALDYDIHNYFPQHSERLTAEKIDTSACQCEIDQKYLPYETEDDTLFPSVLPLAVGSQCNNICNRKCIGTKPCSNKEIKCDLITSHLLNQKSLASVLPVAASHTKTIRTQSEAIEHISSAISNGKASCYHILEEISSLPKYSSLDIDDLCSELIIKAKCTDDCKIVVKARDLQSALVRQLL
# Test: PBM E-score (8-mer binding enrichment) (E-score (-0.5 to 0.5)); higher = stronger / more preferred TF binding
# Conditions: protein concentration: 100 nM; construct: GST-full length
# Procedure: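 Universal 'all 10-mer' protein binding microarrays (Agilent AMADID 015681) probed with GST-tagged S. cerevisiae TFs (full-length or DBD) made by in vitro transcription/translation (PURExpress), about 100-200 nM. Bound TF was detected with fluorescent anti-GST. Each ungapped 8-mer (which stands for itself and its reverse complement) is scored by the PBM enrichment score (E-score), a modified Wilcoxon-Mann-Whitney statistic from -0.5 to +0.5, computed with the Universal PBM Analysis Suite. Scale: above 0.35 generally sequence-specific binding.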
row,Sequence,PBM E-score
1,ATGTGGTG,-0.0254
2,GCGGCTCA,0.00226
3,CAGCGGCC,-0.0649
4,AAACCGAT,0.00351
5,CGTACTTC,0.096
6,ATAGGCAG,0.0141
7,ACATATCG,-0.104
8,CGCACCTA,-0.081
9,TACCCGAA,0.0362
10,ACAACAGA,-0.0637
11,GAGGTTCA,0.0769
12,CCTATCGA,0.0133
13,CGGCCGCC,-0.112
14,AATTGTGC,0.0474
15,TAATAGGA,0.13
16,GCGTACGA,0.00717
17,CGTCTAGA,-0.156
18,ACTTTATG,0.0809
19,GATGCCAA,-0.159
20,CCACGACG,-0.0293
21,CGTGCTCA,0.0902
22,CTCCCACC,-0.305
23,CGTCAGGC,-0.125
24,GAGGCCGA,-0.0148
25,AAACATAG,-0.0611

row,Sequence,PBM E-score
1,ACTTCTAG,-0.253
2,CGCACTCA,0.0075
3,CGATAGAG,-0.0302
4,ATTCCAAA,-0.0355
5,TGACCACA,-0.0368
6,GGCCGGCA,0.059
7,ATTGGGGG,-0.266
8,AGCCGTAG,-0.0375
9,ACAATAGA,-0.144
10,ACATGTTC,-0.00082
11,GCCAGTAA,-0.0823
12,CCATTGTC,0.00119
13,AAGTGCGG,-0.00741
14,CGCGTAAG,0.241
15,CGACACCA,0.0539
16,ATTCGCCG,0.183
17,CAGCGCCA,-0.16
18,CAATTATC,0.146
19,GTAGCGAA,-0.15
20,ATTGAGGG,-0.206
21,AGGGTTTA,-0.0703
22,TCTTTAAA,0.0864
23,CTTCGTTA,-0.0282
24,CAGGTTAG,-0.0576
25,ATATCTAG,0.0434

row,Sequence,PBM E-score
1,AGACTCAC,-0.0897
2,CCGCTCCC,-0.287
3,ATAAGTAT,0.00112
4,GACCGTAA,-0.061
5,AGACGGAC,0.0359
6,AAGACGGG,-0.0459
7,TAGGACTA,-0.00499
8,AAATCTTG,0.109
9,CAGCTCTC,-0.244
10,GCATTACC,-0.163
11,CAGCAGTA,0.0379
12,ATCCCCCA,-0.425
13,ACGAGCGC,-0.0482
14,AATTTGGC,0.0397
15,AATTACGT,0.13
16,ATGTGATA,0.135
17,GCCTAAGC,0.0263
18,ACTGGAAG,-0.166
19,GAACGCCC,-0.0229
20,ACGGTAGC,-0.0419
21,CTCGCTTC,-0.0572
22,GGCGCAGA,0.00055
23,CTACAACC,-0.131
24,ACATATGG,0.114
25,CAAACGTG,0.0705

row,Sequence,PBM E-score
1,AACGTCGA,0.197
2,GGCCGGAA,-0.18
3,CACAATAG,0.0226
4,TAGCATAA,0.0268
5,AGGACGAC,-0.0649
6,CATACGCA,-0.0212
7,CACGGCCG,-0.0272
8,GATTTTGA,0.232
9,AATTTATG,0.229
10,ACCTCACC,-0.247
11,TATATAAA,0.23
12,CATTCTCA,0.121
13,ACTCATGA,0.0734
14,GTTGATGA,0.0968
15,CCAATGGG,-0.261
16,AGATTACG,0.252
17,TTTCCAAA,0.00352
18,TATAATAA,0.278
19,AGACCTTA,0.122
20,CAAACACA,0.114
21,AGGTCGCC,-0.101
22,AGAGTAGA,-0.0592
23,CGCGACGA,0.228
24,CAAGCTAG,-0.0204
25,ACCGGTTC,-0.105

row,Sequence,PBM E-score
1,CATCTAGC,-0.00244
2,ATGAAGCG,-0.137
3,CACGTTCC,0.0584
4,AAACTTAT,0.256
5,AGGCAAGA,-0.099
6,TGGGTCAA,-0.0965
7,CTTTATTA,0.18
8,CATCCGCA,0.0911
9,CGACGACG,-0.122
10,AGATCAGC,0.0485
11,CCATTACC,-0.054
12,CGAAAATA,0.163
13,GAGAGTTA,-0.154
14,ATCTCTTC,0.0988
15,ACTCGCGC,0.0881
16,TGTGAACA,-0.0062
17,AATTATGG,0.216
18,CCAGCCCC,0.0778
19,TGGTCAAA,0.195
20,GTGTTGGA,0.0266
21,CACCTTAA,-0.0508
22,CGGGTCAA,-0.00347
23,CATCGTAC,0.00513
24,GTCGACAC,0.0655
25,TACGTAAA,0.173

# Taken from the results shown (53 entries):
row,Sequence,PBM E-score
22,GGCGCAGA,0.00055
23,CTACAACC,-0.131
24,ACATATGG,0.114
25,CAAACGTG,0.0705
1,AACGTCGA,0.197
2,GGCCGGAA,-0.18
3,CACAATAG,0.0226
4,TAGCATAA,0.0268
5,AGGACGAC,-0.0649
6,CATACGCA,-0.0212
7,CACGGCCG,-0.0272
8,GATTTTGA,0.232
9,AATTTATG,0.229
10,ACCTCACC,-0.247
11,TATATAAA,0.23
12,CATTCTCA,0.121
13,ACTCATGA,0.0734
14,GTTGATGA,0.0968
15,CCAATGGG,-0.261
16,AGATTACG,0.252
17,TTTCCAAA,0.00352
18,TATAATAA,0.278
19,AGACCTTA,0.122
20,CAAACACA,0.114
21,AGGTCGCC,-0.101
22,AGAGTAGA,-0.0592
23,CGCGACGA,0.228
24,CAAGCTAG,-0.0204
25,ACCGGTTC,-0.105
1,CATCTAGC,-0.00244
2,ATGAAGCG,-0.137
3,CACGTTCC,0.0584
4,AAACTTAT,0.256
5,AGGCAAGA,-0.099
6,TGGGTCAA,-0.0965
7,CTTTATTA,0.18
8,CATCCGCA,0.0911
9,CGACGACG,-0.122
10,AGATCAGC,0.0485
11,CCATTACC,-0.054
12,CGAAAATA,0.163
13,GAGAGTTA,-0.154
14,ATCTCTTC,0.0988
15,ACTCGCGC,0.0881
16,TGTGAACA,-0.0062
17,AATTATGG,0.216
18,CCAGCCCC,0.0778
19,TGGTCAAA,0.195
20,GTGTTGGA,0.0266
21,CACCTTAA,-0.0508
22,CGGGTCAA,-0.00347
23,CATCGTAC,0.00513
24,GTCGACAC,0.0655

# Further records follow.

row,Sequence,PBM E-score
1,ACATCCCA,-0.118
2,AGGCCAAT,-0.0024
3,CCGTTAGG,-0.0358
4,AGCTAACA,0.00651
5,CAATAGAC,0.0128
6,ATCCCTAC,0.0636
7,GAGAGGGA,-0.251
8,AGGCGAAC,-0.147
9,GAGAAGCA,-0.301
10,CTAATAAA,0.0515
11,AACTAAGG,0.00458
12,GGCTTTGA,0.101
13,CGACCCTC,-0.211
14,AAGGCGTG,-0.0602
15,GACGCCCA,-0.0981
16,ACCACGGT,-0.2
17,CCCGTAGA,-0.391
18,ACAATCGC,0.186
19,ACATGCCC,-0.183
20,AGGTCTAA,0.0708
21,AAAATACT,0.135
22,AAATATGT,0.277
23,CAAGTCCG,0.0411
24,CCCACCAG,-0.0671
25,ATGAGTCA,0.145

row,Sequence,PBM E-score
1,ATATTCAG,0.0684
2,GCACCCCA,-0.138
3,ATGAATTG,0.0962
4,GTCAGCGA,-0.00445
5,AATCAGGG,-0.0895
6,ACGGGACG,-0.112
7,CACACCGC,0.041
8,AACATAGG,-0.0757
9,TAAACTGA,0.119
10,AGTAAGAG,0.0775
11,ACGTCGGC,0.0403
12,CCTCCAAA,-0.253
13,GCGTCACA,-0.011
14,ACCTATTC,-0.0854
15,AAAGGCTA,-0.175
16,ACCGCACA,-0.0189
17,AAGTCCGG,0.0495
18,GATTCTAA,-0.00114
19,AAATCGGA,0.171
20,GTCATTGA,-0.0116
21,CCTTTGCA,-0.0663
22,GCTAAGTA,0.191
